{
  "source": "paper PMC7819943",
  "about": "“Rice protein-binding microarrays: a tool to detect cis-acting elements near promoter regions in rice”",
  "note": "The list shows a part of the results.",
  "data": [
    {"target": "T1, OsSMF1 (Oryza sativa, UniProt Q6ZLB0 1-436)", "T1 sequence": "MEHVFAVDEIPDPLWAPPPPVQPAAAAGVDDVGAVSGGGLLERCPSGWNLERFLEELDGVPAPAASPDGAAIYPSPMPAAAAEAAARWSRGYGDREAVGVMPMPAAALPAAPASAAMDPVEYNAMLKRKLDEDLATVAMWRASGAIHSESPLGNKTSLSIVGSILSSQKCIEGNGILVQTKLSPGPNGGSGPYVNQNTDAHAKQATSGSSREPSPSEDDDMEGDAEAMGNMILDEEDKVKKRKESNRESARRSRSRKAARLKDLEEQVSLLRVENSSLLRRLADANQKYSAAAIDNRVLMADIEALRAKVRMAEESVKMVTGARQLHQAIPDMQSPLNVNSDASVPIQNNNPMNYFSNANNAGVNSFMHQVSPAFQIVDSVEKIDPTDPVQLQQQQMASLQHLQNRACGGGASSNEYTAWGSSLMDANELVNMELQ", "experiment": "protein-binding microarray (RPBM); PBS, 2% BSA, 51.3 ng/ul salmon testes DNA, 50 uM zinc acetate, 200 nM TF, 25 C, 1 h; high values mean tight binding", "conditions": "protein: recombinant; tags: N-terminal polyhistidine and DsRed monomer fusion (pET32a); chain copies: 2; label: CyDye5-dUTP incorporated in the synthesized complementary strand; 3' TTTTT single-stranded linker to array surface; dsDNA, one strand shown", "in_short": "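An Axon 4000B scanner gave the binding signal as per-feature fluorescence intensity in arbitrary units. This followed washing of a custom Agilent array that had been incubated for 1 h at 25 °C with 200 nM protein in PBS, 2% BSA, salmon testes DNA and 50 µM zinc acetate. The proteins were transcription factors fused at the N-terminus to polyhistidine and DsRed, expressed in E. coli BL21-CodonPlus and purified on Ni–NTA.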", "values": [
      {"sequence": "CGCTCCCGCCACCGCCACATCCCTCGCCGCCGCTTCGCCTCGGAGTCACCTAGTGCAG", "binding signal": "4710 fluorescence intensity (a.u.)"},
      {"sequence": "GGCACCACGCAGTTGTACACAGTTGTACGCGTCGTCGTGCCGGAGTCACCTAGTGCAG", "binding signal": "4190 fluorescence intensity (a.u.)"},
      {"sequence": "CATGTTGTAGCACATTTGGCATCTCTCCAGTAATGACTAACGGAGTCACCTAGTGCAG", "binding signal": "4540 fluorescence intensity (a.u.)"},
      {"sequence": "ATTTTATTTGTGATGTTGTGAATGAATCTACTACATATGTCGGAGTCACCTAGTGCAG", "binding signal": "3210 fluorescence intensity (a.u.)"},
      {"sequence": "CAATCGTTCGGTTTGGTGCACAAGAATTCCTGCAACAGTACGGAGTCACCTAGTGCAG", "binding signal": "3210 fluorescence intensity (a.u.)"},
      {"sequence": "AAGGCTGGAATAATACAGTAGTTGACTGACTCGGTCTCCTCGGAGTCACCTAGTGCAG", "binding signal": "3420 fluorescence intensity (a.u.)"},
      {"sequence": "GCATGACGTACGCTTCGTGACGTAAGGCCTCATGCCCTATCGGAGTCACCTAGTGCAG", "binding signal": "13500 fluorescence intensity (a.u.)"},
      {"sequence": "CCGCCACACCCGCAACCCTAGATAGCAGCGTGCGCCCTTCCGGAGTCACCTAGTGCAG", "binding signal": "25400 fluorescence intensity (a.u.)"},
      {"sequence": "CCAATATATAATTGCCACGTCATCGCCGCGTCAATGCCACCGGAGTCACCTAGTGCAG", "binding signal": "28100 fluorescence intensity (a.u.)"},
      {"sequence": "GTCGAAATGAAGGGGAGGGAGAGACTGACGTGTGGTCCCTCGGAGTCACCTAGTGCAG", "binding signal": "8650 fluorescence intensity (a.u.)"},
      {"sequence": "CGGTGGTCGACGGAGACAGGGACCGAAACGCGTGGCGTCGCGGAGTCACCTAGTGCAG", "binding signal": "5260 fluorescence intensity (a.u.)"},
      {"sequence": "CAAACAATACGCGTACCCACGTGGCCAGGTACACGTTACGCGGAGTCACCTAGTGCAG", "binding signal": "11500 fluorescence intensity (a.u.)"},
      {"sequence": "GACGAAGCTCTTGATGGCGTCGACGAGCTCCCGGGTCCTCCGGAGTCACCTAGTGCAG", "binding signal": "3320 fluorescence intensity (a.u.)"},
      {"sequence": "CCTCACTCTACCCAACACCCACAGACACGTGGGACCCACGCGGAGTCACCTAGTGCAG", "binding signal": "8010 fluorescence intensity (a.u.)"},
      {"sequence": "TATATAAACTTTATATACGTCATATACAAACTTTGTATATCGGAGTCACCTAGTGCAG", "binding signal": "3520 fluorescence intensity (a.u.)"},
      {"sequence": "GTGAGAATTTCTAGGCCATGAGAGCGAACGTGGAGGATTCCGGAGTCACCTAGTGCAG", "binding signal": "3570 fluorescence intensity (a.u.)"},
      {"sequence": "GCGTCGCCTGGTGGCGTAGCTATCCATGACCGCGCACACGCGGAGTCACCTAGTGCAG", "binding signal": "3320 fluorescence intensity (a.u.)"},
      {"sequence": "TCACCGCGAGCCGCCGCCAGTGTGATCACTCTAACATTGGCGGAGTCACCTAGTGCAG", "binding signal": "29900 fluorescence intensity (a.u.)"},
      {"sequence": "TCACGCTGACCAAACACCATCTGTTATTCTGTTTGTTTGTCGGAGTCACCTAGTGCAG", "binding signal": "3640 fluorescence intensity (a.u.)"},
      {"sequence": "CGTACATCGACTTGGGCAGCGACACGTGTCGTTTCGTTTGCGGAGTCACCTAGTGCAG", "binding signal": "15300 fluorescence intensity (a.u.)"},
      {"sequence": "AGGATACACACATCACTCTAATCCTCCATTACCTATGACACGGAGTCACCTAGTGCAG", "binding signal": "4780 fluorescence intensity (a.u.)"},
      {"sequence": "GTGTCGCCGTGTGTGTACAAATAATATGCCAACCTGGCCGCGGAGTCACCTAGTGCAG", "binding signal": "4000 fluorescence intensity (a.u.)"},
      {"sequence": "ACGAACTTGAGAATGATGGGTGGGTGAAACGTGTGAGCTCCGGAGTCACCTAGTGCAG", "binding signal": "4030 fluorescence intensity (a.u.)"},
      {"sequence": "CGCGTCGTCGTGGACTCGTGGCGCCCATGTCGCGTCGCGGCGGAGTCACCTAGTGCAG", "binding signal": "3750 fluorescence intensity (a.u.)"},
      {"sequence": "CGCGTTTATACTGTGTGTAAATGGTGTTTGGCCACGACATCGGAGTCACCTAGTGCAG", "binding signal": "3520 fluorescence intensity (a.u.)"},
      {"sequence": "TGCACTATGCACTGCATCCGTCAAAGGCGCCGCACGTGGCCGGAGTCACCTAGTGCAG", "binding signal": "3510 fluorescence intensity (a.u.)"},
      {"sequence": "CCGCCAAACAGAGTGTTGGAAGGTGCCGCTCTGCCCTGTTCGGAGTCACCTAGTGCAG", "binding signal": "3280 fluorescence intensity (a.u.)"},
      {"sequence": "CACGCGCATCCACGCAAACCCTACCAGCCTCTCTCTCCCGCGGAGTCACCTAGTGCAG", "binding signal": "3760 fluorescence intensity (a.u.)"},
      {"sequence": "ACATACCTTCAGATGACGCGGGGCGTCGGCGGTCGAGGGTCGGAGTCACCTAGTGCAG", "binding signal": "3830 fluorescence intensity (a.u.)"},
      {"sequence": "GGGAACATTGTGTGCCAAAATTGACTCACGAATATACAAGCGGAGTCACCTAGTGCAG", "binding signal": "3340 fluorescence intensity (a.u.)"},
      {"sequence": "TCATGGACCGCGTCACCGATCCAACGCGGCCCACTCGCATCGGAGTCACCTAGTGCAG", "binding signal": "4080 fluorescence intensity (a.u.)"},
      {"sequence": "TTGTGCCTCAAGCCCTAACCTAGCCCAACGTCATTCCCGGCGGAGTCACCTAGTGCAG", "binding signal": "3380 fluorescence intensity (a.u.)"},
      {"sequence": "GTAAAATTAGCAGTTAGAAATCCGGCTTACGTGTAGACTGCGGAGTCACCTAGTGCAG", "binding signal": "5880 fluorescence intensity (a.u.)"},
      {"sequence": "CAAATCTAGATGTACTCATAACATGACACATCAGTGTTAGCGGAGTCACCTAGTGCAG", "binding signal": "3240 fluorescence intensity (a.u.)"},
      {"sequence": "TTATTTATTGTGGCCTACCTCTTGTCACCGCTGCTAGCTCCGGAGTCACCTAGTGCAG", "binding signal": "3950 fluorescence intensity (a.u.)"},
      {"sequence": "GCTACATTTTCGTCGACGTACGTCAGTGACACATGAACTACGGAGTCACCTAGTGCAG", "binding signal": "4800 fluorescence intensity (a.u.)"},
      {"sequence": "GCTAGCCAATCCGCCGCCGCCACCTCACCCAACCAATCCGCGGAGTCACCTAGTGCAG", "binding signal": "4840 fluorescence intensity (a.u.)"},
      {"sequence": "ACAGCACGCATCGCGTTTACACGTAGGTAGCCGTCGGATCCGGAGTCACCTAGTGCAG", "binding signal": "8350 fluorescence intensity (a.u.)"},
      {"sequence": "CTTCGGTGAGGCAGAATTTATATATTGAGCACAAATATAGCGGAGTCACCTAGTGCAG", "binding signal": "19300 fluorescence intensity (a.u.)"},
      {"sequence": "TCCGAAATTGTTGTAATCGATCTGGGTCAGCAGTTCTGCTCGGAGTCACCTAGTGCAG", "binding signal": "3760 fluorescence intensity (a.u.)"},
      {"sequence": "CCGGAGCAGATCCGGATCCTGGAGGCGATCTTCAACTCCGCGGAGTCACCTAGTGCAG", "binding signal": "37900 fluorescence intensity (a.u.)"},
      {"sequence": "AAACCTGAAAACCCTCGCCGCTTCTCCCCGTCCTTCCTTTCGGAGTCACCTAGTGCAG", "binding signal": "3320 fluorescence intensity (a.u.)"},
      {"sequence": "CCGCGGGAGAGAAGGCCCAATCGTGCGCCACGCGTCGTACCGGAGTCACCTAGTGCAG", "binding signal": "7860 fluorescence intensity (a.u.)"},
      {"sequence": "CAGACCAGGGTTACTCTCCTCAACATTCTTAGCTCATAGACGGAGTCACCTAGTGCAG", "binding signal": "47700 fluorescence intensity (a.u.)"},
      {"sequence": "CTAGCCGACGTACCTAGGCGAGGGTGGACGTGATGGAGTTCGGAGTCACCTAGTGCAG", "binding signal": "27400 fluorescence intensity (a.u.)"},
      {"sequence": "TACAGCTGACAGGGTTGTAAAGGCCTGTGGACCAGCCAGTCGGAGTCACCTAGTGCAG", "binding signal": "19000 fluorescence intensity (a.u.)"},
      {"sequence": "CATGGACGAGCATGGCTCATGGCTGACTCGACATTAGAAACGGAGTCACCTAGTGCAG", "binding signal": "3850 fluorescence intensity (a.u.)"},
      {"sequence": "ACAATCATCATTCATTCATGTTACCATGTCACCAGTCTCACGGAGTCACCTAGTGCAG", "binding signal": "3800 fluorescence intensity (a.u.)"},
      {"sequence": "TTTTGTTCGCTACTATAGGCCCACACGTCTGTGCCCATGGCGGAGTCACCTAGTGCAG", "binding signal": "3660 fluorescence intensity (a.u.)"},
      {"sequence": "TGCATGGGCCGGTGTAATGAGCTGGGTAGTAATTGGGCCCCGGAGTCACCTAGTGCAG", "binding signal": "3160 fluorescence intensity (a.u.)"},
      {"sequence": "ACTGCTCACGCCTTAACTGCGCGTCTTAAGGTGGCGTGGCCGGAGTCACCTAGTGCAG", "binding signal": "4310 fluorescence intensity (a.u.)"},
      {"sequence": "TTGTGCGCCAGCTTGGGGACAAGCTGATACTTTGGCGGGTCGGAGTCACCTAGTGCAG", "binding signal": "3440 fluorescence intensity (a.u.)"},
      {"sequence": "TATCAGTCACTGACAGGTGGGTCCCACCTGCTGACTCAGCCGGAGTCACCTAGTGCAG", "binding signal": "16100 fluorescence intensity (a.u.)"},
      {"sequence": "AAGAAGGGGAGTGGATTGTATAGGGGTGGATGGGGATCGACGGAGTCACCTAGTGCAG", "binding signal": "3510 fluorescence intensity (a.u.)"}
    ]}
  ]
}
